Laboratory results as given in patent US20160032001A1 (APEXIGEN, published 2016).
Positions count from the first letter of the chain named. Results are given in words; binding and its absence hold for the method and conditions named. Some entries that bind do so weakly or less than the wild type.

B1: clone 191 rabbit anti-RANKL antibody (antibody, V domains shown)
VH: QSVEESGGRLVTPGTPLTLTCTVSGFSLYTNLINWVRQAPGKGLEWIGYINYGASAYYANWAKGRFTISQTSSTTVDLKMTSLTIEDTATYFCARGYGNDWDRLDLWGQGTLVTVSS
VL: IVMTQTPSPVSGAVGGTVTINCQASQSIGSNLAWYQQKPGQPPKLLIYSASILASGAPSRVSGSGYGTEFTLTISGVQCADAATYYCQQGYTTNADNIFGGGTEVVVE
B2: clone 193 rabbit anti-RANKL antibody (antibody, V domains shown)
VH: QSVEESGGRLVTPGTPLTLTCTFSGFSLSNNAINWVRQAPGKGLEWIGYTWSGGGTYCASWAKGRFTISKTSSTTVDLKMTSLTTEDTATYFCARAYDSEWDRLDLWGQGTLVTVSS
VL: VMTQTPASVSGPVGGTVTIKCQASQSIGSNLGWYQQKPGQPPKLLIFSASNLESGVPSRFKGSGSGTQFTLTISDLECDDAATYYCQQGYTTNNVLNAFAGGTEVVVK
B3: clone 210 rabbit anti-RANKL antibody (antibody, V domains shown)
VH: QSVKESGGGLVTPGGTLTLTCTASGFSLSNNAMSWVRQAPGKGLEWIGYIYPGGSPYYANWAKGRFTISRTSTTVDLKMTSLTTEDTATYFCARHVSDGGWYLYIWGPGTLVTVSL
VL: DMIQTPASVEVAVGGTVTINCQASQSIGSNLAWYQQKPGQPPKLLIYGASTLASGVPSRFKGSGSGTQFTFTISDVECTAAATYYCQQAYSISNVDNAFGGGTEVVVK
B4: clone 416 rabbit anti-RANKL antibody (antibody, V domains shown)
VH: B3 VH with A23V, N30R, A39T, P52S, G54S, Y104D, T113A
VL: B3 VL with A12V, I19F, S26N, G48S, A80D
B5: clone EBI-51-11 rabbit anti-RANKL antibody (antibody, V domains shown)
VH: QSVEESGGRLITPGTPLTLTCTVSGFSLSTDVVSWVRQAPGTGLEWIGYTWSGGSTYYAIWAKGRFTISKTSSTTVDLKITSPTTEDTATYFCARGFNPFDPWGPGTLVTVSS
VL: DMTQTPASVSEPVGGTVTIKCQASQNIGSNLAWYQQKPGQRPKLLIYRASTLASGVSSRFKGSGSGTQFTLTISDLECADAATYYCQQGYSAGNVDKHVFGGGTEVVVK
B6: clone 220 rabbit anti-RANKL antibody (antibody, V domains shown)
VH: QSLEESGGRLVTPGTPLTLTCTVSGFSLSKYEINWVRQAPGKGLEWIGYIDVGSGTWYASWAKGRFTISKTSTTVALRITSPTTEDTATYFCSRQYNPMDLWGPGTLVTVSS
VL: DMTQTPASVEAAVGGTVTIKCQASQNIGSNLAWYQQKPGQRPKLLIYSASTLASGVPSRFKGSGSGTQFTLTISGVQCDDAATYYCQQGYSVGNVNNAFGGGTEVVVK
B7: clone 415 rabbit anti-RANKL antibody (antibody, V domains shown)
VH: B6 VH with L3V, T15G, P16S, K30N, I33M, A76D, R78K
VL: B6 VL with A11V
B8: clone 480 rabbit anti-RANKL antibody (antibody, V domains shown)
VH: B6 VH with T15G, P16S, K30N, A76D, R78K, E85G, Q95S
VL: B6 VL with A11V
B9: clone 91 rabbit anti-RANKL antibody (antibody, V domains shown)
VH: QSLEESGGRLVKPDETLTLTCTVSGSSLYNYEINWVRQAPGKGLEWIGYIDVGSGTWYASWAKGRFTISKTSTTVDLKITSPTTEDTATYFCTRKYNPMDLWGPGTLVTVSS
VL: B6 VL with A11V, R41P, A49T, L52V, S65F, V92A, A98P
B10: clone 227 rabbit anti-RANKL antibody (antibody, V domains shown)
VH: B9 VH with S26F
VL: B6 VL with A11V, R41P, A49T, L52V, S65F, V92A, A98P
B11: clone 238 rabbit anti-RANKL antibody (antibody, V domains shown)
VH: QEQLKESGGGLVTPGGTLTLTCTASGFSLNTNAMSWVRQAPGKGLEWIGYIYSGGSPYYANWAKGRFTISRTSTTVHLKMTSLTTEDTATYFCASHTSGGGWYLDIWGPGTLVTVSL
VL: B3 VL with S26N, A49T, P57S, S65F, A80D, I92T, N94K, V95I
B12: clone 246 rabbit anti-RANKL antibody (antibody, V domains shown)
VH: QSVKESGGGLVTPGGTLTLTCTASGLSLSGNGMSWVRQAPGKGLEWIGYIYSGSSPYYASWAKGRFTISKTSSTTVDLKMTSLTTEDTATYFCARHTSGGGWYLDIWGPGTLVTVSL
VL: B3 VL with G48S, P57S, Q68D, F69Y, F71L, A80D, D96E, A98P
B13: clone 256 rabbit anti-RANKL antibody (antibody, V domains shown)
VH: B6 VH
VL: B6 VL
B14: clone 37 rabbit anti-RANKL antibody (antibody, V domains shown)
VH: QSVEESGGRLVTPGTPLTLTCTVSGFSLSNDVMSWVRQAPGKGLEWIGYIWSGGSPYYANWAKGRFTISKSSSTTVDLKITSPTTEDTAAYFCARGFGSSGLNIWGPGTLVTVSL
VL: B6 VL with A11V, N26S, R41S, T51I, V95I, N96D
B15: clone 270 rabbit anti-RANKL antibody (antibody, V domains shown)
VH: B14 VH with N30S, E45D, S55R
VL: B6 VL with A11V, S29Y, R41P, S48G, G93S, V95I, N96D
B16: clone 299 rabbit anti-RANKL antibody (antibody, V domains shown)
VH: QSLEESGGRLVTPGTPLTLTCTVSGIDLSSSLMTWVRQAPGKGLEWIGYIWSGGAPFYASWAKGRFTISKTSSTTVDLKMTSLTTEDTATYFCAARYTDSGFDALDPWGPGTLVTVSS
VL: DMTQTPASVEAAVGGTVTIKCQASQSIGSYLSWYHQKPGQPPKLLIYRASTLASGVPSRFKGSGSGTQFTLTISDLECADAATYYCQQGYSANVDNAFGGGTEVVVK
B17: clone 7 rabbit anti-RANKL antibody (antibody, V domains shown)
VH: QEQLKESGGGLVTPGGTLTLTCTASGFSLTTNGMSWVRQAPGKGLEWIGYIYSGGSPYYANWAKGRFTISKTSSTTVDLKMTSLTTEDTATYFCARHLSGGGWYLDIWGPGTLVTVSL
VL: B3 VL with I3T, S26N, P57S, A80D, A81P, A98P
B18: clone 547 rabbit anti-RANKL antibody (antibody, V domains shown)
VH: B17 VH with T30S, T31S, G55S, N61S, T91K, L98V
VL: B3 VL with P41R, P57S, F60V, A80D
B19: clone 318 rabbit anti-RANKL antibody (antibody, V domains shown)
VH: B17 VH with E2D, T30G, T31S, G55S, N61S, R96G, L98A, S99K
VL: B3 VL with I3T, E10S, V11A, A32G, P57S, Q68H, T70A, A80D, I92V, S93G
B20: clone 327 rabbit anti-RANKL antibody (antibody, V domains shown)
VH: B6 VH
VL: B6 VL

Biological target: T1, RANKL expressed on the surface of 293 cells (UniProt O14788)
T1 sequence (looked up): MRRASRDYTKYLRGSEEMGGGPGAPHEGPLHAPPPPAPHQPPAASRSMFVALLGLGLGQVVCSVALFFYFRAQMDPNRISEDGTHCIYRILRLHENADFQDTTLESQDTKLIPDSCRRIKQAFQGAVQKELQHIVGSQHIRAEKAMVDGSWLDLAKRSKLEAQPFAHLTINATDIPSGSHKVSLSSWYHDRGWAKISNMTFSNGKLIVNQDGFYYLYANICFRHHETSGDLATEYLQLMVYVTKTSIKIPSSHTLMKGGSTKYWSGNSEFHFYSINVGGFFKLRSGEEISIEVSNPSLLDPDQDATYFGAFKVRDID
Test: flow cytometry, RANKL-transfected 293 cells

binding, binds:
B1
B2
B3
B4
B5
B6
B7
B8
B9
B10
B11
B12
B13
B14
B15
B16
B17
B18
B19
B20
